{"source": "paper PMC8360007", "about": "“Stereoselective Access to Antimelanoma Agents by Hybridization and Dimerization of Dihydroartemisinin and Artesunic acid” (Chemmedchem, 2021)", "data": [{"experiment": "EPR spin trapping with MNP in the presence of Fe(II)SO4", "conditions": "Fe(II)SO4 and MNP, spectra recorded till 180 minutes", "method": "EPR experiments in the presence of Fe(II)SO4 and the spin trap MNP [0, 15, 70, 120, 150 and 180 min with respect to the addition of the last reagent Fe(II)SO4] were also performed. Spectra were recorded till 180 minutes after the addition of Fe(II)SO4 to 20–22‐α,α samples and compared with reference obtained by adding only MNP (Figures S#6–8). In Figure 3 a comparison of the EPR spectra of the MNP adduct from 20–22‐α,α at t=150 minutes is reported in order to compare the intensity of the radical formation for the three products at the same time. In all cases the giso=2.0063±0.0001 and the coupling constant of nitrogen was A=1.62±0.01 mT. These magnetic parameters are in agreement to a C‐centered radical as previously published.[12]\nFigure 3 X‐band EPR spectra of the reaction of a) 20‐α,α, b) 22‐α,α, c) 21‐α,α in the presence of MNP at t=150 minutes after the addition of the last reagent Fe(II)SO4 . Experimental condition. 9.866 GHz microwave frequency, 0.1 mT modulation amplitude and 0.2 mW microwave power.", "values": [{"smiles": "COC(=O)C(Cc1ccc(OC(=O)CCC(=O)OC2OC3OC4(C)CCC5C(C)CCC(C2C)C35OO4)cc1)NC(=O)CCC(=O)OC1OC2OC3(C)CCC4C(C)CCC(C1C)C24OO3", "note": "(stereo not drawn) [21‐α,α]", "radical signal of MNP adduct (C‐centered radical, EPR)": "almost undetectable even after 180 minutes"}, {"smiles": "CC1CCC2C(C)C(OC(=O)CCC(=O)OCc3ccc(OC(=O)CCC(=O)OC4OC5OC6(C)CCC7C(C)CCC(C4C)C57OO6)cc3)OC3OC4(C)CCC1C32OO4", "note": "(stereo not drawn) [Compound 22‐α,α]", "radical signal of MNP adduct (C‐centered radical, EPR)": "visible at 120 minutes"}, {"smiles": "CC1CCC2C(C)C(OC(=O)CCC(=O)NCCc3ccc(OC(=O)CCC(=O)OC4OC5OC6(C)CCC7C(C)CCC(C4C)C57OO6)cc3)OC3OC4(C)CCC1C32OO4", "note": "(stereo not drawn) [20‐α,α]", "radical signal of MNP adduct (C‐centered radical, EPR)": "observed after 1 hour"}]}]}
